Values quoted from earlier work as cited in patent publication US20220362237A1, “PS[…] TREATMENT OF PAIN” (Mind Medicine, Inc., priority 2021, published 2022).
At least one structure is not confirmed: it was looked up by name or label, or the drawing left a doubt.

Sequences of proteins named here, by UniProt entry; tags and fusion partners are left off.
UniProt P14416, whole entry: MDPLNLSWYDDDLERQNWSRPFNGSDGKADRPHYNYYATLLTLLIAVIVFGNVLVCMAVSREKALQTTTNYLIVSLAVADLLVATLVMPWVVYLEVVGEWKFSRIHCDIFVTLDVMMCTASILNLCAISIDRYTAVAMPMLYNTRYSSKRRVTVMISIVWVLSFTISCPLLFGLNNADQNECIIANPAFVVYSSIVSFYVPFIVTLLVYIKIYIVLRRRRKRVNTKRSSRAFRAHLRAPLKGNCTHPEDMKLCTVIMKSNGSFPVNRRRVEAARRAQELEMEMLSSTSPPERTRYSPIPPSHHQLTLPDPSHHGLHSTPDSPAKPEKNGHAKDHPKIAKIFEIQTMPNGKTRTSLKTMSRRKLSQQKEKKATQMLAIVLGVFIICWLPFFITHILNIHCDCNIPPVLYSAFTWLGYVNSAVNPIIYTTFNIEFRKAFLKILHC

What was measured:
[1] = tested on: serotonin 5-HT1 receptors
D2 receptors = D2 receptors (Homo sapiens, UniProt P14416)
[2] = cancer-related psychiatric distress, at least six months following a single acute administration

SMILES	agonist potency at serotonin 5-HT1 receptors [1]	affinity for D2 receptors (D2 receptors)	symptoms of depression and anxiety [2]
CN(C)CCc1c[nH]c2ccccc12 [DMT, dimethyltryptamine]	potent agonists		
CN(C)CCc1c[nH]c2cccc(OP(=O)(O)O)c12 [psilocybin, 3-(2-dimethylaminoethyl)-1H-indol-4-yl] dihydrogen phosphate]		no affinity	may decrease
